Source: publication PMC12618784

T1: Dmel\Tmem43wt::HA (Drosophila) (UniProt Q9VSB9)
T1 sequence: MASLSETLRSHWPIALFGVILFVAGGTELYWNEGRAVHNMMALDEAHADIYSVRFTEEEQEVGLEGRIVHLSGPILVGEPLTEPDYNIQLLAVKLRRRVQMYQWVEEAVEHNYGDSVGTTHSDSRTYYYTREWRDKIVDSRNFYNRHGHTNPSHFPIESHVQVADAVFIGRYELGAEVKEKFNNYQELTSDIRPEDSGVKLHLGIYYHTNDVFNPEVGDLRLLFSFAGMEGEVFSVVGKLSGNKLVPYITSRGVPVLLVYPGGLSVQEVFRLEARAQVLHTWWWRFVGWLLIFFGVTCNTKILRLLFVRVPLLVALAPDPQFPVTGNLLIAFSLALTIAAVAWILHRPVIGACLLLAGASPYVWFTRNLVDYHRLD

T2: Dmel\Tmem43wt::TurboID (Drosophila) (UniProt Q9VSB9)
T2 sequence: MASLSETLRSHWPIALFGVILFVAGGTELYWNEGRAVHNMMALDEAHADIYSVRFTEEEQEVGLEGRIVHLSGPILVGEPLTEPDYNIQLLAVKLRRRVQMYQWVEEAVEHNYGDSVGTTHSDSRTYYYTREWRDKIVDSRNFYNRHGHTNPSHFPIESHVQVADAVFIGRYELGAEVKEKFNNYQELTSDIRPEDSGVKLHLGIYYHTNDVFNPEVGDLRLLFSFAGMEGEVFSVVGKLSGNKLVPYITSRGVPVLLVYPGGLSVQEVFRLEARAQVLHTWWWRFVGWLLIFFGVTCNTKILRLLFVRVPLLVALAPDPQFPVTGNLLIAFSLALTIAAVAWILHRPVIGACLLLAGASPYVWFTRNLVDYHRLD


Columns and labels:
[1] = molecular target: T1, Dmel\Tmem43wt::HA (Drosophila); assay: affinity purification with mass spectrometry; anti-HA-based immunoprecipitation from total protein extracts of third-instar larvae expressing the HA fusion in muscle (mef2-Gal4); isolated proteins identified by mass spectrometry; four biological replicates
[2] = molecular target: T2, Dmel\Tmem43wt::TurboID (Drosophila); assay: proximity labelling; TurboID fusions expressed in muscle of third-instar larvae (mef2-Gal4); biotinylated proteins purified on streptavidin microbeads and identified by mass spectrometry

| binding [1] | binding [2] | Binder |
| --- | --- | --- |
| binds |  | Porin (protein, UniProt Q94920 1-282) MAPPSYSDLGKQARDIFSKGYNFGLWKLDLKTKTSSGIEFNTAGHSNQESGKVFGSLETKYKVKDYGLTLTEKWNTDNTLFTEVAVQDQLLEGLKLSLEGNFAPQSGNKNGKFKVAYGHENVKADSDVNIDLKGPLINASAVLGYQGWLAGYQTAFDTQQSKLTTNNFALGYTTKDFVLHTAVNDGQEFSGSIFQRTSDKLDVGVQLSWASGTSNTKFAIGAKYQLDDDASVRAKVNNASQVGLGYQQKLRDGVTLTLSTLVDGKNFNAGGHKIGVGLELEA |
|  | binds | Sphingosine-1-phosphatase lyase (Sply) (protein, UniProt Q9V7Y2 1-545) MRPFSGSDCLKPVTEGINRAFGAKEPWQVATITATTVLGGVWLWTVICQDENLYIRGKRQFFKFAKKIPAVRRQVETELAKAKNDFETEIKKSNAHLTYSETLPEKGLSKEEILRLVDEHLKTGHYNWRDGRVSGAVYGYKPDLVELVTEVYGKASYTNPLHADLFPGVCKMEAEVVRMACNLFHGNSASCGTMTTGGTESIVMAMKAYRDFAREYKGITRPNIVVPKTVHAAFDKGGQYFNIHVRSVDVDPETYEVDIKKFKRAINRNTILLVGSAPNFPYGTIDDIEAIAALGVKYDIPVHVDACLGSFVVALVRNAGYKLRPFDFEVKGVTSISADTHKYGFAPKGSSVILYSDKKYKDHQFTVTTDWPGGVYGSPTVNGSRAGGIIAACWATMMSFGYDGYLEATKRIVDTARYIERGVRDIDGIFIFGKPATSVIALGSNVFDIFRLSDSLCKLGWNLNALQFPSGIHLCVTDMHTQPGVADKFIADVRSCTAEIMKDPGQPVVGKMALYGMAQSIPDRSVIGEVTRLFLHSMYYTPSQK |

These are yes or no findings as the source states them, for the method shown. In cells and extracts the contact can be indirect. These calls come from enrichment with a bait or labelling near it, and not all partners need be listed. For some assays here: Tags and fused reporters may be left off the sequences shown.
